Source: article doi:10.1101/2025.10.22.683978
No constants are given. Whether binding was seen depends on the method and setting. In cells and extracts the contact can be indirect. Some results given as binding are weak or reduced against the parent protein; the word gives no strength. Tags and fused reporters may be left off the sequences shown.

Amino acid sequences for entries named in this document (tags omitted).
UniProt P14859: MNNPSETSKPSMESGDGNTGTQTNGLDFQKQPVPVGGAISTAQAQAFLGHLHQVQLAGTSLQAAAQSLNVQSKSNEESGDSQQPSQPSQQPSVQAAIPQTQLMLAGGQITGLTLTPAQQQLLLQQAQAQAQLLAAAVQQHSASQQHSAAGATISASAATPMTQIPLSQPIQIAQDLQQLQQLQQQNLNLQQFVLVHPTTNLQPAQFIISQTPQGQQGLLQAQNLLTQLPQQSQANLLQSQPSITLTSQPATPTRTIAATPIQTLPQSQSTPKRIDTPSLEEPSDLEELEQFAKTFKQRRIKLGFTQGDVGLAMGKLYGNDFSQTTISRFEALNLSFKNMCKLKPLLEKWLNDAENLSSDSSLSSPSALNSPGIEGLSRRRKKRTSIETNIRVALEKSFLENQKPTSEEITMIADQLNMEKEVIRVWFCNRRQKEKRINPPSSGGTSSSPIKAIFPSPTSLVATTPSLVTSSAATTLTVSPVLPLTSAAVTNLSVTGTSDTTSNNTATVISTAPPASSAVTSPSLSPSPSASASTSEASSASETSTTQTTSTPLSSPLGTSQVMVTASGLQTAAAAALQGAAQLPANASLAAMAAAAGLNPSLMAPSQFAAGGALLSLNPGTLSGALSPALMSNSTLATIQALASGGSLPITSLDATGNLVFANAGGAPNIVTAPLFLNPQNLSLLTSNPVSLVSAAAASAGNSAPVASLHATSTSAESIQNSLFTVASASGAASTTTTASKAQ

Target: full-length human Oct1 with N-terminal nLuc (NanoBRET donor) (human) (UniProt P14859)
Test: FRET or BRET

- binding: binds
B1: full-length human OCA-B with a C-terminal HaloTag (NanoBRET acceptor) (protein, UniProt Q16633 1-256)
chain: MLWQKPTAPEQAPAPARPYQGVRVKEPVKELLRRKRGHASSGAAPAPTAVVLPHQPLATYTTVGPSCLDMEGSVSAVTEEAALCAGWLSQPTPATLQPLAPWTPYTEYVPHEAVSCPYSADMYVQPVCPSYTVVGPSSVLTYASPPLITNVTTRSSATPAVGPPLEGPEHQAPLTYFPWPQPLSTLPTSTLQYQPPAPALPGPQFVQLPISIPEPVLQDMEDPRRAASSLTIDKLLLEEEDSDAYALNHTLSVEGF
